# According to patent publication US20140050674A1, “Method for Improving Penetration or Long Term Adhesion of Compositions to Dental Tissues and Compositions Usable in Said Method” (University of Oulu, priority 2011, published 2014):
# Tests used:
# [1] = Contact angle measurements (sessile drop of water) on DMSO-pretreated acid-etched dentin; set-up: species or system human
# [2] = Microtensile bond strength testing; details: for Long-term bond strength (mean and standard deviation): 12 months storage; for Increase in bond strength (immediate) vs control / Increase in bond strength (long-term) vs control: 0.003% DMSO
# [3] = Fluid flow measurements through dentin discs (Flodec); set-up: species or system human; details: DMSO solutions 15 s before bonding with Scotchbond 1XT
# [4] = Nanoleakage evaluation (AgNO3 impregnation, FESEM); details: 0.003% DMSO treatment
compound,measurement,setting,value
"C[S+](C)[O-] [DMSO, dimethyl sulphoxide]",Contact angle (mean and SD),"[1]; 1% DMSO pretreatment solution, 1 s after drop",48.3 (5.4) degrees
same,Contact angle (mean and SD),"[1]; 1% DMSO pretreatment solution, 10 s after drop",46.4 (3.6) degrees
same,Contact angle (mean and SD),"[1]; 1% DMSO pretreatment solution, 60 s after drop",43.6 (2.1) degrees
same,Contact angle in relation to the control (100%),"[1]; 1% DMSO, 1 s after drop",88.2%
same,Contact angle in relation to the control (100%),"[1]; 1% DMSO, 10 s after drop",84.8%
same,Contact angle in relation to the control (100%),"[1]; 1% DMSO, 60 s after drop",79.6%
same,Contact angle (mean and SD),"[1]; 2% DMSO pretreatment solution, 1 s after drop",46.2 (6.8) degrees
same,Contact angle (mean and SD),"[1]; 2% DMSO pretreatment solution, 10 s after drop",42.1 (4.0) degrees
same,Contact angle (mean and SD),"[1]; 2% DMSO pretreatment solution, 60 s after drop",35.7 (2.1) degrees
same,Contact angle in relation to the control (100%),"[1]; 2% DMSO, 1 s after drop",84.5%
same,Contact angle in relation to the control (100%),"[1]; 2% DMSO, 10 s after drop",77.1%
same,Contact angle in relation to the control (100%),"[1]; 2% DMSO, 60 s after drop",65.3%
same,Contact angle (mean and SD),"[1]; 3% DMSO pretreatment solution, 1 s after drop",38.6 (4.7) degrees
same,Contact angle (mean and SD),"[1]; 3% DMSO pretreatment solution, 10 s after drop",35.5 (3.2) degrees
same,Contact angle (mean and SD),"[1]; 3% DMSO pretreatment solution, 60 s after drop",30.2 (1.4) degrees
same,Contact angle in relation to the control (100%),"[1]; 3% DMSO, 1 s after drop",70.5%
same,Contact angle in relation to the control (100%),"[1]; 3% DMSO, 10 s after drop",64.8%
same,Contact angle in relation to the control (100%),"[1]; 3% DMSO, 60 s after drop",55.3%
same,Contact angle (mean and SD),"[1]; 4% DMSO pretreatment solution, 1 s after drop",33.7 (2.7) degrees
same,Contact angle (mean and SD),"[1]; 4% DMSO pretreatment solution, 10 s after drop",32.2 (2.6) degrees
same,Contact angle (mean and SD),"[1]; 4% DMSO pretreatment solution, 60 s after drop",28.5 (1.7) degrees
same,Contact angle in relation to the control (100%),"[1]; 4% DMSO, 1 s after drop",61.5%
same,Contact angle in relation to the control (100%),"[1]; 4% DMSO, 10 s after drop",58.9%
same,Contact angle in relation to the control (100%),"[1]; 4% DMSO, 60 s after drop",52.2%
same,Contact angle (mean and SD),"[1]; 5% DMSO pretreatment solution, 1 s after drop",29.2 (3.4) degrees
same,Contact angle (mean and SD),"[1]; 5% DMSO pretreatment solution, 10 s after drop",28.2 (3.1) degrees
same,Contact angle (mean and SD),"[1]; 5% DMSO pretreatment solution, 60 s after drop",25.3 (1.9) degrees
same,Contact angle in relation to the control (100%),"[1]; 5% DMSO, 1 s after drop",53.4%
same,Contact angle in relation to the control (100%),"[1]; 5% DMSO, 10 s after drop",51.5%
same,Contact angle in relation to the control (100%),"[1]; 5% DMSO, 60 s after drop",46.2%
same,Mean difference in contact angle between DMSO and control (0% DMSO),"[1]; 5% DMSO, first measurement, 1 second after drop",25.5 °
same,Mean contact angle as % of that measured in control samples,"[1]; 5% DMSO, whole recording period 60 s (SD 0.27%; maximum 53.38%, minimum 52.52%)",52.92%
same,Immediate bond strength (mean and standard deviation),"[2]; 0.003% DMSO dentin treatment, 2-step etch-and-rinse adhesive SB1, Exp. 1",18.4 (5.5) MPa
same,Immediate bond strength (mean and standard deviation),"[2]; 0.003% DMSO dentin treatment, 2-step etch-and-rinse adhesive SB1, Exp. 2",39.1 (3.1) MPa
same,Immediate bond strength (mean and standard deviation),"[2]; 0.003% DMSO dentin treatment, 2-step etch-and-rinse adhesive SB1, Exp. 3",29.5 (8.9) MPa
same,Long-term bond strength (mean and standard deviation),"[2]; 0.003% DMSO dentin treatment, SB1 Exp. 3",26.9 (9.0) MPa
same,Long-term bond strength (mean and standard deviation),"[2]; 0.003% DMSO dentin treatment, Scotchbond SE",6.9 (4.2) MPa
same,Immediate bond strength (mean and standard deviation),"[2]; 0.003% DMSO dentin treatment, self-etch adhesive Scotchbond SE",14.2 (6.2) MPa
same,Immediate bond strength (mean and standard deviation),"[2]; 0.003% DMSO dentin treatment, self-etch adhesive Silorane",38.2 (6.1) MPa
same,Increase in bond strength (immediate) vs control,"[2]; SB1, Exp. 1",−8.5%
same,Increase in bond strength (immediate) vs control,"[2]; SB1, Exp. 2",6.0%
same,Increase in bond strength (immediate) vs control,"[2]; SB1, Exp. 3",17.1%
same,Increase in bond strength (long-term) vs control,"[2]; SB1 Exp. 1, 6 months",53.2%
same,Increase in bond strength (long-term) vs control,"[2]; SB1 Exp. 1, 12 months",73.0%
same,Increase in bond strength (long-term) vs control,"[2]; SB1 Exp. 2, 6 months",52.6%
same,Increase in bond strength (long-term) vs control,"[2]; SB1 Exp. 3, 12 months",21.7%
same,Increase in bond strength (immediate) vs control,[2]; SBMP,27.9%
same,Increase in bond strength (long-term) vs control,"[2]; SBMP, 12 months",51.3%
same,Increase in bond strength (immediate) vs control,[2]; Scotchbond SE,32.7%
same,Increase in bond strength (long-term) vs control,"[2]; Scotchbond SE, 12 months",38.0%
same,Increase in bond strength (immediate) vs control,[2]; Silorane,19.4%
same,Increase in bond strength (long-term) vs control,"[2]; Silorane, 12 months",22.5%
same,Improvement of immediate bond strength,"[2]; DMSO treatment of dentin (Table 2, FIG. 7)",up to 27.9%
same,Increase in immediate bond strength vs control,[2]; about 1% DMSO (w/w) mixed directly into Scotchbond Universal adhesive,10.8%
same,Immediate bond strength (mean and standard deviation),"[2]; about 1% DMSO (w/w) mixed directly into Scotchbond Universal adhesive, control 26.1±5.4 MPa",29.8±5.7 MPa
same,Long-term bond strength vs control,"[2]; separate dentin treatment with 0.003% DMSO, storage for six or 12 months",higher bond strength in all experiments
same,Dentinal fluid flow into hybrid/adhesive layer during adhesive application and composite build-up,[3],capable of inhibiting the dentinal fluid flow; also recorded: significant reduction of pulpal fluid flow; also recorded: greatly reduced
same,"Immediate nanoleakage, DMSO vs controls",[4],no difference
same,"Nanoleakage, immediate vs 6-month results in DMSO group",[4]; 6 month storage in artificial saliva,no difference

# “Also recorded” adds a separate entry of the source.
